Experimental findings from article PMC4986862 are described below.

Protein sequences, listed by entry. Tags and fused reporters are not part of them. Lines headed by an entry give the natural chain unless they say otherwise; changes in a name come on top.
UniProt Q38997: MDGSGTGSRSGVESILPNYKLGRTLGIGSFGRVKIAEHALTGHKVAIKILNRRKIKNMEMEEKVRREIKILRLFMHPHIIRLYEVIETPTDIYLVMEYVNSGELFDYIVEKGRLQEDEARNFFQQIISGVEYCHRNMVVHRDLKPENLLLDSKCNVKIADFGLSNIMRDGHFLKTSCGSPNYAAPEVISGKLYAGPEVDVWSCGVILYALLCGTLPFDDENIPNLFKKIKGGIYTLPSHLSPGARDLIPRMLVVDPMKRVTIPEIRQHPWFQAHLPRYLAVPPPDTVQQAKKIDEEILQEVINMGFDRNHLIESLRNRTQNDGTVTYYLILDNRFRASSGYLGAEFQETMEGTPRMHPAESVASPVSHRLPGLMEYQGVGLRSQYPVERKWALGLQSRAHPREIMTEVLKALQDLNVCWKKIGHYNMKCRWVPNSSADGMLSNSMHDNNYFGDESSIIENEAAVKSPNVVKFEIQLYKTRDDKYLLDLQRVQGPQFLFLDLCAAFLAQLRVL

Results are given in words; binding and its absence hold for the method and conditions named. A result given as binding can be weak or reduced; the word gives no strength. Tags and fused reporters may be left off the sequences shown.

This assay addresses BD–AKIN10 (AKIN10 fused to the GAL4 binding domain) (Arabidopsis thaliana) (UniProt Q38997). Nature of the assay: two-hybrid; pairwise tests, growth on selective medium with 25 mM 3-AT.

B1: AD–PTL (full-length PETAL LOSS fused to the GAL4 activation domain) (protein, UniProt Q9LZS0 1-591)
chain: MDQDQHPQYGIPELRQLMKGGGRTTTTTPSTSSHFPSDFFGFNLAPVQPPPHRLHQFTTDQDMGFLPRGIHGLGGGSSTAGNNSNLNASTSGGGVGFSGFLDGGGFGSGVGGDGGGTGRWPRQETLTLLEIRSRLDHKFKEANQKGPLWDEVSRIMSEEHGYQRSGKKCREKFENLYKYYRKTKEGKAGRQDGKHYRFFRQLEALYGDSNNLVSCPNHNTQFMSSALHGFHTQNPMNVTTTTSNIHNVDSVHGFHQSLSLSNNYNSSELELMTSSSEGNDSSSRRKKRSWKAKIKEFIDTNMKRLIERQDVWLEKLTKVIEDKEEQRMMKEEEWRKIEAARIDKEHLFWAKERARMEARDVAVIEALQYLTGKPLIKPLCSSPEERTNGNNEIRNNSETQNENGSDQTMTNNVCVKGSSSCWGEQEILKLMEIRTSMDSTFQEILGGCSDEFLWEEIAAKLIQLGFDQRSALLCKEKWEWISNGMRKEKKQINKKRKDNSSSCGVYYPRNEENPIYNNRESGYNDNDPHQINEQGNVGSSTSNANANANVTTGNPSGAMAASTNCFPFFMGDGDQNLWESYGLRLSKEENQ
As to B1, the binding entry is given as “binds”.
